# Experimental data from the supplement of paper PMC8728848.
# This is one part of the list.
# B1: Endo180d1-D4 (Homo sapiens), Q9UBG0 (protein)
# chain: MGPGRPAPAPWPRHLLRCVLLLGCLHLGRPGAPGDAALPEPNVFLIFSHGLQGCLEAQGGQVRVTPACNTSLPAQRWKWVSRNRLFNLGTMQCLGTGWPGTNTTASLGMYECDREALNLRWHCRTLGDQLSLLLGARTSNISKPGTLERGDQTRSGQWRIYGSEEDLCALPYHEVYTIQGNSHGKPCTIPFKYDNQWFHGCTSTGREDGHLWCATTQDYGKDERWGFCPIKSNDCETFWDKDQLTDSCYQFNFQSTLSWREAWASCEQQGADLLSITEIHEQTYINGLLTGYSSTLWIGLNDLDTSGGWQWSDNSPLKYLNWESDQPDNPSEENCGVIRTESSGGWQNRDCSIALPYVCKKKPNATAEPTPPDRWANVKVECEPSWQPFQGHCYRLQAEKRSWQESKKACLRGGGDLVSIHSMAELEFITKQIKQEVEELWIGLNDLKLQMNFEWSDGSLVSFTHWHPFEPNNFRDSLEDCVTIWGPEGRWNDSPCNQSLPSICKKAGQLSQGAAEEDHGCRKGWTWHSPSCYWLGEDQVTYSEARRLCTDHGSQLVTITNRFEQAFVSSLIYNWEGEYFWTALQDLNSTGSFFWLSGDEVMYTHWNRDQPGYSRGGCVALATGSAMGLWEVKNCTSFRARYICRQSLGTPVTPELPGPDPTPSLTGSCPQGWASDTKLRYCYKVFSSERLQDKKSWVQAQGACQELGAQLLSLASYEEEHFVANMLNKIFGESEPEIHEQHWFWIGLNRRDPRGGQSWRWSDGVGFSYHNFDRSRHDDDDIRGCAVLDLASLQWVAMQCDTQLDWICKIPRGTDVREPDDSPQGRREWLRFQEAEYKFFEHHSTWAQAQRICTWFQAELTSVHSQAELDFLSHNLQKFSRAQEQHWWIGLHTSESDGRFRWTDGSIINFISWAPGKPRPVGKDKKCVYMTASREDWGDQRCLTALPYICKRSNVTKETQPPDLPTTALGGCPSDWIQFLNKCFQVQGQEPQSRVKWSEAQFSCEQQEAQLVTITNPLEQAFITASLPNVTFDLWIGLHASQRDFQWVEQEPLMYANWAPGEPSGPSPAPSGNKPTSCAVVLHSPSAHFTGRWDDRSCTEETHGFICQKGTDPSLSPSPAALPPAPGTELSYLNGTFRLLQKPLRWHDALLLCESHNASLAYVPDPYTQAFLTQAARGLRTPLWIGLAGEEGSRRYSWVSEEPLNYVGWQDGEPQQPGGCTYVDVDGAWRTTSCDTKLQGAVCGVSSGPPPPRRISYHGSCPQGLADSAWIPFREHCYSFHMELLLGHKEARQRCQRAGGAVLSILDEMENVFVWEHLQSYEGQSRGAWLGMNFNPKGGTLVWQDNTAVNYSNWGPPGLGPSMLSHNSCYWIQSNSGLWRPGACTNITMGVVCKLPRAEQSSFSPSALPENPAALVVVLMAVLLLLALLTAALILYRRRQSIERGAFEGARYSRSSSSPTEATEKNILVSDMEMNEQQE
# Columns and labels:
# Test in all cases: glycan array binding signal (z-score within array); higher = stronger binding
# Conditions in all cases: glycan notation: IUPAC condensed, linker removed
# [1] = target: Gal(b1-4)GlcNAc(b1-3)Gal(b1-4)[Fuc(a1-3)]GlcNAc(b1-3)Gal(b1-4)[Fuc(a1-3)]GlcNAc
# How it was run: (§1)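 The binding signal is a Z-score computed within each array and averaged over linkers. Arrays of the same protein sequence at different concentrations or buffers were also averaged together. Data originate from 3228 arrays in the Consortium for Functional Glycomics database, kept only where the protein sequence was available.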
# [2] = target: Gal(b1-4)GlcNAc(b1-3)GalNAc
# How it was run: as §1
# [3] = target: Gal(b1-4)GlcNAc(b1-3)[Fuc(a1-3)GlcNAc(b1-6)]Gal(b1-4)Glc
# How it was run: as §1
# [4] = target: Gal(b1-4)GlcNAc(b1-3)[Gal(b1-4)GlcNAc(b1-6)]Gal(b1-4)GlcNAc
# How it was run: as §1
# [5] = target: Gal(b1-4)GlcNAc(b1-3)[Gal(b1-4)GlcNAc(b1-6)]GalNAc
# How it was run: as §1
# [6] = target: Gal(b1-4)GlcNAc(b1-3)[GlcNAc(b1-6)]Gal(b1-4)GlcNAc
# How it was run: as §1
# [7] = target: Gal(b1-4)GlcNAc(b1-6)Gal(b1-4)GlcNAc
# How it was run: as §1
# [8] = target: Gal(b1-4)GlcNAc(b1-6)Gal(b1-4)GlcNAc(b1-6)GalNAc
# How it was run: as §1
# [9] = target: Gal(b1-4)GlcNAc(b1-6)GalNAc
# How it was run: as §1
# [10] = target: Gal(b1-4)GlcNAc(b1-6)[Gal(b1-3)]GalNAc
# How it was run: as §1
# [11] = target: Gal(b1-4)GlcNAc(b1-6)[Gal(b1-4)GlcNAc(b1-3)]GalNAc
# How it was run: as §1
# Gal(b1-4)GlcNAc6P = target: Gal(b1-4)GlcNAc6P
# How it was run: as §1
# Gal(b1-6)Gal = target: Gal(b1-6)Gal
# How it was run: as §1
# Gal3S(b1-3)GalNAc = target: Gal3S(b1-3)GalNAc
# How it was run: as §1
# Gal3S(b1-3)GlcNAc = target: Gal3S(b1-3)GlcNAc
# How it was run: as §1
# [12] = target: Gal3S(b1-3)[Fuc(a1-4)]GlcNAc
# How it was run: as §1
# Gal3S(b1-4)Glc = target: Gal3S(b1-4)Glc
# How it was run: as §1
# Gal3S(b1-4)Glc6S = target: Gal3S(b1-4)Glc6S
# How it was run: as §1
# Gal3S(b1-4)GlcNAc = target: Gal3S(b1-4)GlcNAc
# How it was run: as §1
# Gal3S(b1-4)GlcNAc6S = target: Gal3S(b1-4)GlcNAc6S
# How it was run: as §1
# [13] = target: Gal3S(b1-4)[Fuc(a1-3)]Glc6S
# How it was run: as §1
# [14] = target: Gal3S(b1-4)[Fuc(a1-3)]GlcNAc
# How it was run: as §1
# [15] = target: Gal3S(b1-4)[Fuc(a1-3)]GlcNAc6S
# How it was run: as §1
binder,measurement,setting,value
B1,glycan array binding signal (z-score),[1],-0.047
same,glycan array binding signal (z-score),[2],0.141
same,glycan array binding signal (z-score),[3],-0.533
same,glycan array binding signal (z-score),[4],-0.503
same,glycan array binding signal (z-score),[5],-0.215
same,glycan array binding signal (z-score),[6],-0.226
same,glycan array binding signal (z-score),[7],-1.39
same,glycan array binding signal (z-score),[8],-0.163
same,glycan array binding signal (z-score),[9],0.977
same,glycan array binding signal (z-score),[10],-0.915
same,glycan array binding signal (z-score),[11],-0.295
same,glycan array binding signal (z-score),Gal(b1-4)GlcNAc6P,0.318
same,glycan array binding signal (z-score),Gal(b1-6)Gal,-0.36
same,glycan array binding signal (z-score),Gal3S(b1-3)GalNAc,0.452
same,glycan array binding signal (z-score),Gal3S(b1-3)GlcNAc,-0.139
same,glycan array binding signal (z-score),[12],-0.496
same,glycan array binding signal (z-score),Gal3S(b1-4)Glc,0.341
same,glycan array binding signal (z-score),Gal3S(b1-4)Glc6S,0.494
same,glycan array binding signal (z-score),Gal3S(b1-4)GlcNAc,-0.523
same,glycan array binding signal (z-score),Gal3S(b1-4)GlcNAc6S,1.88
same,glycan array binding signal (z-score),[13],0.973
same,glycan array binding signal (z-score),[14],0.358
same,glycan array binding signal (z-score),[15],-0.002

# Exported with bars between the fields: entries from further up
binder | measurement | setting | value
B1 | glycan array binding signal (z-score) | [13] | 0.973
same | glycan array binding signal (z-score) | [14] | 0.358
